Measurements published in PMC5458187, “Inhibitor SBFI26 suppresses the malignant progression of castration-resistant PC3-M cells by competitively binding to oncogenic FABP5” (Oncotarget, 2017).
A number of entries come with more than one value. Only these are listed. There may be further records. Values that stand side by side appear to be repeats (runs, samples, wells or individuals).

Test system: PC3-M-Luc8 cells implanted orthotopically into the prostate gland
Assay: Orthotopic nude mouse assay of tumorigenicity and metastasis
Conditions: day 25, 1 mg/kg intraperitoneally

In the case of `O=C(O)C1C(c2ccccc2)C(C(=O)Oc2cccc3ccccc23)C1c1ccccc1` (stereo not drawn) [SBFI26, α-truxillic acid 1-naphthyl mono-ester], the “suppression in tumour masses over control (by bioluminescence)” value is reported as “about 4.9 fold and 4.9 fold”.
